Laboratory results reported in PubChem BioAssay AID540256 (National Center for Advancing Translational Sciences (NCATS), 2011).
Several values for one entry are separate records, joined by “and”; a condition that tells them apart may be missing. Identical values can stand only once. Hit rate of the full screen: of about 300,000 compounds, about 3,700 (1.2%) were called active. Inconclusive results, whose numbers are uncertain, are shown with a selection of clear calls. Calls come from the whole dose curve; tested in HEK293 cells. Where the call is inconclusive, the potency comes from a doubtful curve fit.

Experiment: qHTS for Inhibitors of binding or entry into cells for Lassa Virus; note: nearly all actives have a fitted effect of over 50% in size
Conditions: Lassa virus pseudotype entry inhibition, cell reporter; series mostly up to 37.9 µM
Potency is the fitted concentration of half-maximal effect.

SMILES | Potency
O=C(CSC1=Nc2ccccc2N=C(c2ccc(F)cc2)C1)Nc1ccc(Cl)cc1 | inconclusive: 2.82 µM [activator, full curve, poor fit]
CCOP(=O)(OCC)C(NC(=O)Nc1ccc(C)c(Cl)c1)c1ccccc1 (stereo unspecified) | inconclusive: 6.51 µM [inhibitor, partial curve, poor fit]
O=C(CNC1CCCC1)Nc1ccc(S(=O)(=O)N2CCCCC2)cc1 | inconclusive: 14.1 µM [inhibitor, single point]
CCOCc1c(C(=O)NC2=Nc3ccccc3NC(CC)=C2C(=O)OCC)oc2ccccc12 | inconclusive: 14.1 µM [inhibitor, single point]
CCOC(=O)c1c(C)[nH]c(C)c1C(=O)COC(=O)c1ccccc1O | inactive
COc1ccc(OC)c(NC(=O)Cn2c(=O)n(Cc3nc(C)no3)c(=O)c3ccccc32)c1 | inactive
O=C(Nc1ccc(N2CCOCC2)c(F)c1)c1cccs1 | inconclusive: 10 µM [inhibitor, single point]
COc1ccc(C(=O)/C=C/c2ccccc2OC)c(OC(=O)c2ccc([N+](=O)[O-])cc2)c1 | inactive
CCOC(=O)COc1ccc(S(=O)(=O)NCC2CCCO2)cc1 (stereo unspecified) | inconclusive: 20.6 µM [activator, single point]
NC(=O)CCN1CCN(C(=O)c2ccc3nc(Cc4cccc(Cl)c4)oc3c2)CC1 | inconclusive: 1.41 µM [activator, partial curve, poor fit]
O=C1C(=Cc2cccs2)Oc2ccccc21 | inconclusive: 3.16 µM [activator, partial curve, poor fit]
Nc1nc(F)nc2c1ncn2[C@@H]1O[C@H](CO)[C@@H](O)[C@@H]1O | inconclusive: 32.6 µM [inhibitor, partial curve, poor fit]
CCOc1ccc(CNC(=O)c2cnc3sc(N(CC)CC)nn3c2=O)cc1 | inconclusive: 2.24 µM [inhibitor, full curve]
CCOC(=O)N1CCN(C(=O)COc2ccc(Cl)c(C)c2)CC1 | inconclusive: 0.0052 µM [inhibitor, full curve, poor fit]
Cc1c(OCC(F)(F)F)ccnc1CS(=O)c1nc2ccccc2[nH]1 (stereo unspecified) | inactive and inconclusive: 1.16 µM [activator, full curve]
CCOc1ccc2nc(N(CCN(CC)CC)C(=O)/C=C/c3cccs3)sc2c1 | inactive
CCN(CC)S(=O)(=O)c1ccc(NC(=O)C2c3ccccc3Oc3ccccc32)cc1 | inconclusive: 13 µM [inhibitor, partial curve, poor fit]
CCc1ccc(N2C(=O)NC(=O)/C(=C\c3cc(C)n(-c4cc(C(=O)O)cc(C(=O)O)c4)c3C)C2=O)cc1 | inconclusive: 14.1 µM [activator, single point]
COc1ccc(CCNC(=O)c2c(C)nn(CC(C)C)c2Cl)cc1 | active: 2.24 µM
CCn1nc(C)c(/C=N/NC(=O)Cn2nnnc2N)c1C | inconclusive: 35.5 µM [inhibitor, single point]
Cn1cnc2c1c(=O)n(Cc1ccccc1C#N)c(=O)n2C | inconclusive: 22.4 µM [activator, partial curve, poor fit]
Cc1ccc(S(=O)(=O)c2nc(-c3ccco3)oc2SCc2ccc(F)cc2)cc1 | inactive

SMILES | Potency
COC(=O)c1cc2ccsc2n1Cc1nc(-c2ccc(OC)cc2)oc1C | inconclusive: 29.1 µM [inhibitor, single point]
COc1cccc2sc(NN)nc12 | inactive
COc1ccc(Cn2cnc3c4cc(F)ccc4n(C)c3c2=O)cc1 | inconclusive: 1.26 µM [inhibitor, single point]
COC(=O)c1ccccc1NC(=O)COC(=O)c1ccccc1N=Nc1ccc(N(C)C)cc1 | inactive
O=C(c1cccc(F)c1)N1CCN(c2ccc([N+](=O)[O-])c3cccnc23)CC1 | inconclusive: 5.01 µM [inhibitor, full curve]
Cc1ccc(C)c(N=Cc2ccc(-c3ccc([N+](=O)[O-])cc3)o2)c1 | inconclusive: 3.55 µM [inhibitor, full curve, poor fit]
Cc1cccc(N2CCN(C(=O)Cn3ncc4c([nH]c5ccccc54)c3=O)CC2C)c1 (stereo unspecified) | inactive
CCOc1ccc(NC(=O)c2cc(C)nc3c2c(C)nn3-c2cccc(F)c2)cc1 | inconclusive: 14.1 µM [activator, single point]
O=C(Nc1ccc(Cl)cn1)c1ccccc1F | inconclusive: 23.1 µM [inhibitor, single point]
COc1ccc(-c2cc(OC)c3c(C)oc(C)c3c(=O)c2)cc1OC | inconclusive: 16.4 µM [inhibitor, single point]
Cc1ccc(NC(=O)C2CCCN2S(=O)(=O)c2ccc3c(c2)C(C)(C)C(=O)N3C)cc1 (stereo unspecified) | inactive
Cc1ccccc1-n1c(SCc2ccccn2)nc2n[nH]c(C)c2c1=N | inconclusive: 35.5 µM [inhibitor, single point]
CCOc1ccc(CNC(=O)c2cccn2-c2nnc(N3CCCCC3)s2)cc1OC | inactive
CCOCCCNC(=O)c1cc(=O)[nH]c2ccc(S(=O)(=O)N3CCCC3)cc12 | inactive
CCCCCn1c(=O)[nH]c2cc(C(=O)N3CCN(c4cccc(OC)c4)CC3)ccc2c1=O | inconclusive: 2.82 µM [activator, partial curve, poor fit]
Cc1csc(NC(=O)c2ccc3nc[nH]c3c2)n1 | inconclusive: 12.6 µM [inhibitor, single point]
O=C(C[n+]1ccccc1)Nc1nc2ccccc2s1 | inconclusive: 10.3 µM [activator, partial curve, poor fit]
CCOC(=O)c1ccc(NC(=O)C2(c3ccc(OC)cc3)CCOCC2)cc1 | inconclusive: 22.4 µM [inhibitor, single point]
O=C1CC(c2ccc(Cl)cc2)c2cc3c(cc2N1)OCCO3 (stereo unspecified) | inactive
Cc1ccc2oc(=O)n(CCOc3ccccc3C)c2c1 | inactive
COC(=O)c1ccc(-c2sc3nc(N4CCOCC4)c4c(c3c2N)CCCC4)o1 | inconclusive: 28.2 µM [inhibitor, single point]
O=C(NNC(=O)c1ccc(Cl)s1)c1csc(N2CCOCC2)n1 | inconclusive: 0.794 µM [inhibitor, single point]

SMILES | Potency
O=C(COC(=O)c1ccc2ncsc2c1)Nc1cc([N+](=O)[O-])ccc1Cl | inconclusive: 7.94 µM [inhibitor, partial curve, poor fit]
CC(C)C(OC(=O)c1cccs1)C(=O)NC1CCCCC1 (stereo unspecified) | inconclusive: 2.82 µM [activator, single point]
CCOC(=O)C1CCCN(C(=O)c2cc3nc(-c4cccc(OC)c4)cc(C(F)(F)F)n3n2)C1 (stereo unspecified) | inconclusive: 20.6 µM [inhibitor, partial curve, poor fit]
Cc1ccnc(NC(=O)CCC(=O)N(CC(=O)NC(C)(C)C)c2ccc3c(c2)OCCO3)c1 | inconclusive: 6.31 µM [inhibitor, full curve, poor fit]
CCOC(=O)CCCN1C(=O)CCn2nc(-c3cn(C)c4ccccc34)cc21 | inactive
CCc1ccccc1NC(=O)C(CC)Oc1ccccc1-c1nnc(-c2ccccc2)o1 (stereo unspecified) | inconclusive: 4.47 µM [inhibitor, full curve]
Cc1c(C(c2ccc(Br)cc2)c2c(O)c3ccccc3oc2=O)c(=O)n(-c2ccccc2)n1C (stereo unspecified) | inconclusive: 31.6 µM [activator, single point]
O=C(Nc1ccc(C(=O)OCc2cc(=O)n3nc(C4CC4)sc3n2)cc1)c1cccc(Cl)c1 | inactive
O=C1/C(=C/c2ccc(O)cc2)COc2ccccc21 | inactive
OCC1(Cc2ccc(F)cc2)CCCN(Cc2ccc(F)cc2Cl)C1 (stereo unspecified) | inconclusive: 1.12 µM [inhibitor, full curve, poor fit]
CCOC(=O)c1c(-c2ccc(OC)cc2)csc1NC(=O)COc1ccc2c(C)cc(=O)oc2c1 | inactive
O=C(Cn1cc(C(=O)c2ccccc2)c2ccccc21)NCc1ccco1 | inactive
Cc1ccc(-c2nc(CS(=O)CC(=O)N3CCN(c4ccc(F)cc4)CC3)c(C)o2)cc1 (stereo unspecified) | inconclusive: 25.1 µM [inhibitor, partial curve, poor fit]
Cc1cc(C(=O)N(C)C)sc1-c1ccccc1 | inconclusive: 29.1 µM [activator, single point]
COC(=O)CC=C[C@H](C)[C@@H](OCc1ccccc1Br)C(C)C | inconclusive: 0.0168 µM [inhibitor, full curve, poor fit]
O=C(Nc1ccccc1F)C1CCN(S(=O)(=O)c2ccc3c(c2)CCCN3C(=O)C2CCC2)CC1 | inconclusive: 4.47 µM [inhibitor, full curve]
COc1ccc(Nc2nc(-c3ccccc3)cs2)cc1 | active: 20.6 µM
O=C(c1ccc(-c2ccccc2)c(F)c1)C1CCCN(C(=O)c2cncs2)C1 (stereo unspecified) | inconclusive: 25.1 µM [inhibitor, single point]
Oc1ccc(Cc2ncc(C(F)(F)F)cc2Cl)cc1 | inconclusive: 5.01 µM [inhibitor, full curve, poor fit]
COc1ccc2nc3c4nc5ccc(OC)cc5c4c4c(=O)[nH]c(=O)c4c3c2c1 | inconclusive: 15.8 µM [inhibitor, single point]
Cc1cc(Cl)ccc1OC(C)C(=O)NC(C)C1CCCO1 (stereo unspecified) | inactive
CC(C)C(=O)NC(c1cccc([N+](=O)[O-])c1)c1ccc2cccnc2c1O (stereo unspecified) | active: 7.08 µM
